Drawing on paper PMC4150762, “The DEAD-box helicase Ded1 from yeast is an mRNP cap-associated protein that shuttles between the cytoplasm and nucleus” (Nucleic Acids Research, 2014), this text covers binding for two molecules.

Protein sequences, listed by entry. Tags and fused reporters are not part of them.
UniProt P06634: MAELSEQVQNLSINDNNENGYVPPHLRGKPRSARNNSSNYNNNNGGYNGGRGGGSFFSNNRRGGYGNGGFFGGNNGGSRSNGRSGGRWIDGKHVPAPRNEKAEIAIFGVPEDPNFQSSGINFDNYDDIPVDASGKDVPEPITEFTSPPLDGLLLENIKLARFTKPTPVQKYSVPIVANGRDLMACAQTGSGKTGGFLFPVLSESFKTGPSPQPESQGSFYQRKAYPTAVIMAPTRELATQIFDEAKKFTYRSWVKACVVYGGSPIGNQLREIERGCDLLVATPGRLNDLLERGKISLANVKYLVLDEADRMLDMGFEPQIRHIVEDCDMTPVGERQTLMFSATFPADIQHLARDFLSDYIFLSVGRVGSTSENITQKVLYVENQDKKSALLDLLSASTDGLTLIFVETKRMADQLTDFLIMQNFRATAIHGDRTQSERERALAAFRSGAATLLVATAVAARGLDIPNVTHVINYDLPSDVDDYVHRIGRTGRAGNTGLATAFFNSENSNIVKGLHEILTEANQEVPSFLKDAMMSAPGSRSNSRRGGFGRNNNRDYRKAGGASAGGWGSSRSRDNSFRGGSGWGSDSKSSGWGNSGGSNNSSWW
UniProt P04147: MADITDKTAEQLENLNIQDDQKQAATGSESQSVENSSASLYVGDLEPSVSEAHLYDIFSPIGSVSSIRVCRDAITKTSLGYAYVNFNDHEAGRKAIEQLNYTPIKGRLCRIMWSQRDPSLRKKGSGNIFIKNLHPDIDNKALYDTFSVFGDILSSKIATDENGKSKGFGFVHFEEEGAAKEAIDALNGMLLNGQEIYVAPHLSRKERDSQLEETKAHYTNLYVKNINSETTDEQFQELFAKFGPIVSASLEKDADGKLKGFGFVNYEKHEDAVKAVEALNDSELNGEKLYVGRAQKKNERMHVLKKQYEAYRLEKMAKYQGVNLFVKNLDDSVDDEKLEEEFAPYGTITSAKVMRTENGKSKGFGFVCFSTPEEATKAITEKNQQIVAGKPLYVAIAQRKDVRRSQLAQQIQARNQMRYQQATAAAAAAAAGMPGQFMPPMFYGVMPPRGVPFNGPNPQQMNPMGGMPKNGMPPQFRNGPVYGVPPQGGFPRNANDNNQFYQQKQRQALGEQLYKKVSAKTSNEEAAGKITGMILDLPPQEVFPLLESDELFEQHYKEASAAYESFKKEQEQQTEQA

For assay [1], the target named is Ded1 (S. cerevisiae (endogenous in BY4742)) (UniProt P06634). Kind of assay: affinity purification with mass spectrometry; selected sucrose gradient fractions (4, 6, 7) of yeast extract purified by Ded1-IgG Sepharose pull-down, nanoLC-MS/MS.
Assay [2] has as its target Ded1 (S. cerevisiae (endogenous in BY4742)), P06634. The assay is described as above. Particulars: remark: other sources report otherwise.

These are yes or no findings as the source states them, for the method shown. Binding seen in cells or lysates may run through a third protein. Here binding means that the protein was enriched with, or labelled near, the bait; the list need not be complete.

Pab1 (from UniProt P04147 1-577): the binding entry in assay [1] is listed as “binds”.

B1: eIF4E with an amino-terminal His6 tag (natural protein, S. cerevisiae, UniProt P07260 1-213, looked up)
chain: MSVEEVSKKFEENVSVDDTTATPKTVLSDSAHFDVKHPLNTKWTLWYTKPAVDKSESWSDLLRPVTSFQTVEEFWAIIQNIPEPHELPLKSDYHVFRNDVRPEWEDEANAKGGKWSFQLRGKGADIDELWLRTLLAVIGETIDEDDSQINGVVLSIRKGGNKFALWTKSEDKEPLLRIGGKFKQVLKLTDDGHLEFFPHSSANGRHPQPSITL
notes: eIF4E (CDC33) of S. cerevisiae cloned into the NdeI-BamHI sites of pET15b; also called CDC33; source: E. coli (pET15b), purified on nickel-agarose
For the molecule B1, the binding result in assay [2] was “binds”.
